Reference: patent publication US6673746B1, “Virulence enhancement of bioherbicides” (priority 1999, dated 2004)
Some entries share one result that the patent states for a list of compounds.

Tested on: Papaver somniferum
Assay: Amino acid toxicity test on plants, Papaver somniferum seedlings
Format: in vivo
Conditions: starting at 3 mM
Description: Amino Acid Toxicity Tests on Plants. Germinated seeds of Cannabis sativa, Papaver somniferum, and Nicotiana tobaccum were transferred to minimal medium (3% Sucrose (w/v), 1.7 g/l Yeast extract base without amino acids (Difco Laboratories, Detroit, Mich.), 16 g/l Ultrapure Agar (USB, Cleveland, Ohio)) supplemented with increasing concentrations of amino acids. Each amino acid was supplemented at eight concentrations (0 mM, 0.01 mM, 0.1 mM, 0.5 mM, 1 mM, 2 mM, 3 mM, 4 mM), and each treatment was replicated six times. Five pregerminated seeds were placed on each plate, per replication. Plates were incubated at ambient temperature with 12-hour diurnal period for two weeks. The fresh weight per seedling was calculated at the end of the experiment.

| Structure (SMILES) | maximum reduction of the fresh weight of P. somniferum seedlings |
| --- | --- |
| N[C@@H](Cc1c[nH]c2ccccc12)C(=O)O [tryptophan] | 30-40% |
| N[C@@H](Cc1ccccc1)C(=O)O [phenylalanine] | 30-40% |
